Results reported in PMC5691636.
These are yes or no findings as the source states them, for the method shown. In cells and extracts the contact can be indirect.

Chains of the proteins cited; added tags and fusions are not shown. Lines headed by an entry give the natural chain unless they say otherwise; changes in a name come on top. A line that says so, or that is headed by a name, gives the form on record, which may keep a tag or linker. Residues count along the entry.
UniProt O75928: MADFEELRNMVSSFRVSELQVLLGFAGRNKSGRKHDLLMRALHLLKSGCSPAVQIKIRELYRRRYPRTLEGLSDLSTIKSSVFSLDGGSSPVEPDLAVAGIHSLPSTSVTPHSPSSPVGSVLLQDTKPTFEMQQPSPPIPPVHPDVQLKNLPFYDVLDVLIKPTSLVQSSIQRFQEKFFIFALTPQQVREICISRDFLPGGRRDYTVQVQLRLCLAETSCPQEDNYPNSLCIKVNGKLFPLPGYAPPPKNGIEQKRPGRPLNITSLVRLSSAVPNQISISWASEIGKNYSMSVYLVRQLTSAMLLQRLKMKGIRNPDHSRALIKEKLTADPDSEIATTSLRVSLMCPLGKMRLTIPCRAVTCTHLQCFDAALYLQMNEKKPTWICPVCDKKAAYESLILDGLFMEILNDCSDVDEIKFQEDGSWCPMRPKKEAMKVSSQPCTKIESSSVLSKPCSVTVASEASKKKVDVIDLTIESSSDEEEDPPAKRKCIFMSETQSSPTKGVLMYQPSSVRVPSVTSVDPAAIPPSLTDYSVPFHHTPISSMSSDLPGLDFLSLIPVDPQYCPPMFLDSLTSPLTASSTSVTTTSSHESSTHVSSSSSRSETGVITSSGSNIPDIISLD
HCV NS3 protein of genotype 2a (JFH1), FLAG-tagged (Hepatitis C virus genotype 2a (JFH1)) (Q99IB8, residues 1031-1661): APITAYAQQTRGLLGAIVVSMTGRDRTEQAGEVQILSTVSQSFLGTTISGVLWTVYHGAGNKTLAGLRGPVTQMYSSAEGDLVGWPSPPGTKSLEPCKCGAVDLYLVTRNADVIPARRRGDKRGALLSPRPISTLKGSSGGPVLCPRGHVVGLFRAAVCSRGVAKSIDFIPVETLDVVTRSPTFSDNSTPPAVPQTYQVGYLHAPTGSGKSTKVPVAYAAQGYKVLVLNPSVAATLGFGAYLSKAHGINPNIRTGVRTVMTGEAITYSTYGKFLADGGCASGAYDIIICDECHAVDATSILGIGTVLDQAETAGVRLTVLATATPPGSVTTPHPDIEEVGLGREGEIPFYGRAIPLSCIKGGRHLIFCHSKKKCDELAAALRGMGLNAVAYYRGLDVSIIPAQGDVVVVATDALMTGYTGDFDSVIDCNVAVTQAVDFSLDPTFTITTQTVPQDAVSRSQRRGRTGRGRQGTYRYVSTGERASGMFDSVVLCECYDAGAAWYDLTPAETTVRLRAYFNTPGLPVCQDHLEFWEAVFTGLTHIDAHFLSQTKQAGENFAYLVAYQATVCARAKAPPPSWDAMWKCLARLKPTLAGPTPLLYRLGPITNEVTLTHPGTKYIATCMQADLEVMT
HCV NS5A protein of genotype 2a (JFH1), FLAG-tagged (Q99IB8, residues 1977-2442): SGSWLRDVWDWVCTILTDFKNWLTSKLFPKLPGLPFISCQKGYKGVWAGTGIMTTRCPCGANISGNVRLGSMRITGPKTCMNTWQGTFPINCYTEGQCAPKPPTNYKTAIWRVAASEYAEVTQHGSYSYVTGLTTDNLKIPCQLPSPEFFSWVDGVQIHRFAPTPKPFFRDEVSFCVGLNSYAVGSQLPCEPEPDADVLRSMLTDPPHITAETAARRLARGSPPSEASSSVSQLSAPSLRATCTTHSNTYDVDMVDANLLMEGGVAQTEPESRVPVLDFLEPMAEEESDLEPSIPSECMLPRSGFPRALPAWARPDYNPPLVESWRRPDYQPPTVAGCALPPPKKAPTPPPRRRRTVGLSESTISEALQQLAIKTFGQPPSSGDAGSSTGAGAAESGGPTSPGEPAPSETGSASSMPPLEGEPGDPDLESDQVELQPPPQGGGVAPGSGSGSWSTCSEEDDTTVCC

Columns and labels:
Assay in all cases: co-IP
[1] = molecular target: protein inhibitor of activated STAT2 (PIAS2), HA-tagged (human) (UniProt O75928)
[2] = molecular target: HCV NS3 protein of genotype 2a (JFH1), FLAG-tagged (Hepatitis C virus genotype 2a (JFH1)) (UniProt Q99IB8)
[3] = molecular target: HCV NS5A protein of genotype 2a (JFH1), FLAG-tagged (Hepatitis C virus genotype 2a (JFH1)) (UniProt Q99IB8)

Substance	binding [1]	binding [2]	binding [3]
HCV NS3 protein of genotype 2a (JFH1), FLAG-tagged (from UniProt Q99IB8 1031-1661)	no binding	–	–
protein inhibitor of activated STAT2 (PIAS2), HA-tagged (from UniProt O75928-1 1-621)	–	no binding	no binding
HCV NS5A protein of genotype 2a (JFH1), FLAG-tagged (from UniProt Q99IB8 1977-2442)	no binding	–	–
